PubChem BioAssay AID1259425 – University of Nebraska Medical Center – 2018

Purpose: 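Find knockdowns that reproduce the gene expression pattern seen when KSR1 is lost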 (primary screen)
Cells: HCT116 human colon cancer cells
Knock-down reagent: siRNA pool against human genes, 50 nM siRNA
Detection: 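mRNA of six signature genes measured together by branched-DNA assay after 50 nM siRNA pool, blank removed, divided by geometric mean of two housekeeping genes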
Scale: BNIP3L mRNA: higher = more BNIP3L transcript after knockdown; NDRG1 mRNA: higher = more NDRG1 transcript after knockdown; BNIP3 mRNA: higher = more BNIP3 transcript after knockdown; ALDOC mRNA: higher = more ALDOC transcript after knockdown; ACSL5 mRNA: higher = more ACSL5 transcript after knockdown
The deposit covers about 14,000 reagents; shown is an unselected part. A reagent listed more than once was tested more than once; the source does not tell the runs apart. The record does not give: the time to read-out.

target gene	BNIP3L mRNA, set 1	NDRG1 mRNA, set 1	BNIP3 mRNA, set 1	ALDOC mRNA, set 1	ACSL5 mRNA, set 1
CD27	0.0418	0.0958	0.217	0.0122	0.11
FCMR	0.144	0.125	0.374	0.0247	0.0883
USP30	0.104	0.094	0.234	0.0265	0.148
PLIN3	0.128	0.208	0.402	0.0338	0.189
SRGAP3	0.0916	0.294	0.25	0.0116	0.204
MYL4	0.171	0.478	0.482	0.0486	0.238
POFUT3	0.138	0.385	0.378	0.0569	0.226
GRK4	0.065	0.116	0.305	0.0151	0.155
GRK4	0.062	0.0986	0.425	0.00419	0.318
SYT7	0.136	0.227	0.281	0.0404	0.234
CHPF2	0.218	0.242	0.464	0.0329	0.127
OR4D1	0.168	0.293	0.353	0.0351	0.211
NECTIN4	0.0924	0.298	0.276	0.00478	0.306
LRRC4C	0.119	0.27	0.325	0.0319	0.178
ARHGAP10	0.17	0.0979	0.268	0.0362	0.215
COPS7B	0.14	0.101	0.435	0.0374	0.188
KYAT1	0.0419	0.316	0.309	0.0159	0.223
TMEM144	0.107	0.143	0.377	0.0291	0.164
DLL3	0.152	0.106	0.298	0.0364	0.213
PDE7B	0.086	0.314	0.202	0.0147	0.137
CFI	0.105	0.19	0.182	0.0157	0.0924
RIDA	0.143	0.163	0.281	0.02	0.286
THYN1	0.149	0.25	0.334	0.038	0.167
SND1	0.0685	0.124	0.215	0.00918	0.179

Records listed so far whose gene name begins with P or p:
target gene	BNIP3L mRNA, set 1	NDRG1 mRNA, set 1	BNIP3 mRNA, set 1	ALDOC mRNA, set 1	ACSL5 mRNA, set 1
PLIN3	0.128	0.208	0.402	0.0338	0.189
POFUT3	0.138	0.385	0.378	0.0569	0.226
PDE7B	0.086	0.314	0.202	0.0147	0.137

The results go on:
target gene	BNIP3L mRNA, set 1	NDRG1 mRNA, set 1	BNIP3 mRNA, set 1	ALDOC mRNA, set 1	ACSL5 mRNA, set 1
KDSR	0.0806	0.131	0.274	0.0101	0.178
OR7C2	0.137	0.122	0.245	0.0564	0.234
ZNRD2	0.123	0.155	0.239	0.027	0.16
PER3	0.197	0.2	0.208	0.0432	0.384
TCTN3	0.0708	0.19	0.409	0.017	0.156
ENDOU	0.133	0.0835	0.196	0.0153	0.103
SPATA3	0.11	0.159	0.206	0.0177	0.0798
WNK3	0.083	0.162	0.298	0.00823	0.222
NAA60	0.207	0.648	0.342	0.119	0.232
LYZ	0.125	0.356	0.276	0.0145	0.0945
EFCAB6	0.0987	0.137	0.289	0.0355	0.108
SOST	0.0445	0.174	0.25	0.0146	0.137
ZNF521	0.264	0.155	0.632	0.0267	0.155
INSIG1	0.0455	0.147	0.376	0.0275	0.208
CD2	0.0898	0.21	0.368	0.0251	0.145
CD83	0.124	0.125	0.301	0.0273	0.166
TEAD1	0.0768	0.103	0.241	0.0215	0.192
BHMT2	0.0751	0.242	0.462	0.0239	0.222
RRH	0.0702	0.114	0.238	0.0403	0.201
PRPF19	0.19	1.2	0.234	0.00927	0.179
CTSA	0.109	0.17	0.314	0.0361	0.0941
GLT8D2	0.249	0.428	0.371	0.166	0.308
PJA2	0.144	0.611	0.329	0.0503	0.542
ARSB	0.0721	0.0702	0.315	0.00915	0.148
RNASEH2A	0.0541	0.112	0.351	0.0486	0.122
TBX5	0.069	0.315	0.195	0.0166	0.119
